Consider one compound from patent US10016444B2, “Molecules for bone tissue regeneration” (ISTITUTO ORTOPEDICO RIZZOLI, priority 2014, dated 2018).

Molecules are shown by their SMILES.

For one data set, the system named is human osteoclasts (OCs). The following applies: OCs on Biocoat Osteologic slides, qualitative evaluation. On the procedure:
The ability of OCs to perform a physiological function of degrading the inorganic matrix was assessed by means of the ‘Pit Assay’, in which the OCs were cultured on Biocoat Osteologic (BD Bioscience) slides according to the procedure described in detail above.

The test system of data set [1] is human mesenchymal stem cells (MSCs). Briefly: Mineralisation assay on MSCs (Alizarin Red). Format: cell-based. The following applies: osteogenic conditions, 21 days, dose dependence. Here is the method:
The evaluation of the functional capacity to deposit inorganic matrix on the part of MSC cells was evaluated with an in vitro mineralisation assay, according to an already consolidated method (Grassi F. et al. J. Tissue Eng Reg Med, 2013); MSC cells were maintained under culture for 21 days in the presence of […] of ascorbic acid, 2 mM of β-glycerophosphate and 100 nM of dexamethasone. The medium was changed twice a week with the addition of DM-22 or alendronate at the specified concentrations. Finally, the mineralised matrix was visualised by staining with Alizarin Red and quantified by spectrophotometry (Nanoquant, Tecan Group, Mannedorf, Switzerland).

For data set [2] the test system is unchanged. The following applies: 72 h, 33 μM.

On to `NCCCC(O)(P(=O)(O)O)P(=O)(O)O` [alendronate, reference compound], for which the “inhibition of erosive capacity of OCs (pits, qualitative)” value in the data set with human osteoclasts (OCs) is listed as “inhibits the erosive capacity of OCs starting from the lowest concentration”. Moreover, the “mineralising capacity of MSCs (Alizarin Red)” value in data set [1] is reported as “progressive, dose-dependent inhibition”. Moreover, the “cellular toxicity (LDH assay)” value in data set [2] is recorded as “significant cellular toxicity”.
